From the supplement of paper PMC10849652
This is one part of the list.

Protein sequences, listed by entry. Tags and fused reporters are not part of them. Lines headed by an entry give the natural chain unless they say otherwise; changes in a name come on top.
UniProt Q86Y13: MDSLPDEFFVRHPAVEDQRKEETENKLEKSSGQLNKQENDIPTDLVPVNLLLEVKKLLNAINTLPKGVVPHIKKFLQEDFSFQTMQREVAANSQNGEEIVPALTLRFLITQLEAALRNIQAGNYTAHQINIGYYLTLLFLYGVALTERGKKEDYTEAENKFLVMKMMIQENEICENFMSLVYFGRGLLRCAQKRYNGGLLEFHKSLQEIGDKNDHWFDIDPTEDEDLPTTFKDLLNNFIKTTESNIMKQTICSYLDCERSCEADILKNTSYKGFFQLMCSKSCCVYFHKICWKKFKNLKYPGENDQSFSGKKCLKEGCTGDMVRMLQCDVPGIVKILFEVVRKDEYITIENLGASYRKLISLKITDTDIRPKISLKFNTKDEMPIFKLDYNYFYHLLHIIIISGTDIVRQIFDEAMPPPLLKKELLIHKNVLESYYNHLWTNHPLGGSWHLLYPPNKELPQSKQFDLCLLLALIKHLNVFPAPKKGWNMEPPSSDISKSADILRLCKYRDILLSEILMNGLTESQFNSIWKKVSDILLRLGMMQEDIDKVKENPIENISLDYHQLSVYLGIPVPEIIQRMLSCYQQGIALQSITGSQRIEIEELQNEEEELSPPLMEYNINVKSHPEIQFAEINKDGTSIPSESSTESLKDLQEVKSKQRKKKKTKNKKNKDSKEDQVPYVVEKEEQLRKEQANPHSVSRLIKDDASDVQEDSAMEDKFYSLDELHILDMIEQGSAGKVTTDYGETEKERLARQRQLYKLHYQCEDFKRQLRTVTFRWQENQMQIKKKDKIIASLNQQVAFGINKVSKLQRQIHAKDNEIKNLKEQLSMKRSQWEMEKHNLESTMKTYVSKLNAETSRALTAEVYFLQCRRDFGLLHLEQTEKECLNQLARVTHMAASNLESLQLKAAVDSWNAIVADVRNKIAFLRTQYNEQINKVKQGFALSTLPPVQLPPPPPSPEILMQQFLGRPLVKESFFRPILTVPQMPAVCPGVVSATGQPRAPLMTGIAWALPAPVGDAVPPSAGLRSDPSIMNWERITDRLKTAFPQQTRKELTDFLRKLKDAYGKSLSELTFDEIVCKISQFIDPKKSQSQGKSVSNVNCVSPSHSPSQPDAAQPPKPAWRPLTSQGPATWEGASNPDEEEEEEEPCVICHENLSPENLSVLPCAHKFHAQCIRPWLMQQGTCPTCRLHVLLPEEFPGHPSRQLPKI
UniProt O14640: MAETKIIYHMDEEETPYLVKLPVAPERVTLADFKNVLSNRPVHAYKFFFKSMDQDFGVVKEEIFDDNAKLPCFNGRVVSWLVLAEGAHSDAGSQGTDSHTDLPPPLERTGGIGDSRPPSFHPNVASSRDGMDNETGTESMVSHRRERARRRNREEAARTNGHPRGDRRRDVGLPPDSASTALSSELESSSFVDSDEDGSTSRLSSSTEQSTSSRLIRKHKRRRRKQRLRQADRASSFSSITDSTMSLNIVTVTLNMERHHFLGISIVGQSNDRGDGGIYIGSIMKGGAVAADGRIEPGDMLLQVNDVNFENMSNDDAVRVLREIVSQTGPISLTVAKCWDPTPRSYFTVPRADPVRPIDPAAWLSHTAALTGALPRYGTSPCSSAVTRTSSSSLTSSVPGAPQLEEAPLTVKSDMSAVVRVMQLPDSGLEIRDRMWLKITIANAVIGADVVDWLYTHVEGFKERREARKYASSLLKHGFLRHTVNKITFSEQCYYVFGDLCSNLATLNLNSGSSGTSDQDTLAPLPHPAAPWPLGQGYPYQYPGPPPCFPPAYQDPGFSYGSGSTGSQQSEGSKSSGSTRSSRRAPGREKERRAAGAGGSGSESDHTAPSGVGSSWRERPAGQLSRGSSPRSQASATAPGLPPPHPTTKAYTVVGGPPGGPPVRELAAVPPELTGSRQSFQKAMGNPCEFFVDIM
UniProt Q8TD84: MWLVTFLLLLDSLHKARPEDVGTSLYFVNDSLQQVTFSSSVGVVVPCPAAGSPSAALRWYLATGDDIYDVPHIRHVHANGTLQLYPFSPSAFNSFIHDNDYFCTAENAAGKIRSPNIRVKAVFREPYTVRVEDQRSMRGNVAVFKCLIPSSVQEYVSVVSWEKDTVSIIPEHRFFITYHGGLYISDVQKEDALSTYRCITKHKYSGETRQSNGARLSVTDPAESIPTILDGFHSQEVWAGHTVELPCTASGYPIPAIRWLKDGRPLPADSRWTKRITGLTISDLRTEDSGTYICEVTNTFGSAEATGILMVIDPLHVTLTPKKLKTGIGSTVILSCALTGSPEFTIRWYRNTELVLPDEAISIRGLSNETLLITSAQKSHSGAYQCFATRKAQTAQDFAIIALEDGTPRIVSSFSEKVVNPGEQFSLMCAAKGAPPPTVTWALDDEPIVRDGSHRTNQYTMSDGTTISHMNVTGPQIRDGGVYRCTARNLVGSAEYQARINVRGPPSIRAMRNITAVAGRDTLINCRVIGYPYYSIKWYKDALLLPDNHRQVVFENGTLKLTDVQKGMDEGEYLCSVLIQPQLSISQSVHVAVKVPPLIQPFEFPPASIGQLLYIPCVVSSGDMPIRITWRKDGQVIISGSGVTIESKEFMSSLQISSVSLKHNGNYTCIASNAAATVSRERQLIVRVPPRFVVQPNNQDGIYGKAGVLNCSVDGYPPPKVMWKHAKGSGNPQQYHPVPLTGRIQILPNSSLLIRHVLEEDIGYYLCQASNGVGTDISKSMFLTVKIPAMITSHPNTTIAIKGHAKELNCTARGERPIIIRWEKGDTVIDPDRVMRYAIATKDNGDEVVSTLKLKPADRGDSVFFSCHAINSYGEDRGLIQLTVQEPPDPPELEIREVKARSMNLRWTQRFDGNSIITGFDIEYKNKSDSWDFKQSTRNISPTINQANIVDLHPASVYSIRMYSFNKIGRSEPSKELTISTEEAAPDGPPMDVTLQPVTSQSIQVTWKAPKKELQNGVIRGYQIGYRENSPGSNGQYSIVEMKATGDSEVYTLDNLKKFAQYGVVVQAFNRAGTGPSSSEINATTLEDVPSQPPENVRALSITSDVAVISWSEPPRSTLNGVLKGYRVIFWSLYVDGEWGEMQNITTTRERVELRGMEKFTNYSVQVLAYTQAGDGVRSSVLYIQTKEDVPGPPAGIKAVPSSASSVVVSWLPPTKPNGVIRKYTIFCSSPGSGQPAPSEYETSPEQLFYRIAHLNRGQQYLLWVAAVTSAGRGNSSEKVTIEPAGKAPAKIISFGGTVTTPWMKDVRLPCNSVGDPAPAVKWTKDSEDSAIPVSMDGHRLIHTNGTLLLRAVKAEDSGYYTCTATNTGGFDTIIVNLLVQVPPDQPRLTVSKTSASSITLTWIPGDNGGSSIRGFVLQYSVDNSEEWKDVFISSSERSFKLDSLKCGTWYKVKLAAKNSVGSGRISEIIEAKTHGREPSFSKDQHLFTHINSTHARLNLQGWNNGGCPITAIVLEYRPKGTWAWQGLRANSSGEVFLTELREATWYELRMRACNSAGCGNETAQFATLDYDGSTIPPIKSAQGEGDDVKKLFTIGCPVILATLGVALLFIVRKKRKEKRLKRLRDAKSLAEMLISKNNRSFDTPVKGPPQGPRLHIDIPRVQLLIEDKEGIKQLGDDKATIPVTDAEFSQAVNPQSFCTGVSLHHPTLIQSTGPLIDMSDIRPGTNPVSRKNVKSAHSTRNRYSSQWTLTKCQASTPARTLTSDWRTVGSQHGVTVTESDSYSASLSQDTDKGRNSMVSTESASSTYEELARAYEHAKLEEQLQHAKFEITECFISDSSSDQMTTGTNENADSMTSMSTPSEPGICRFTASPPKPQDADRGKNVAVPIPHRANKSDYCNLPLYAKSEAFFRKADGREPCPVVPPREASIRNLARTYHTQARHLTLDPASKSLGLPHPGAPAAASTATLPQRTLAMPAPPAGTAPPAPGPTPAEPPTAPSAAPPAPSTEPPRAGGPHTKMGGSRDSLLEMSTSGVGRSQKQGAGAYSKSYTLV
UniProt P32926: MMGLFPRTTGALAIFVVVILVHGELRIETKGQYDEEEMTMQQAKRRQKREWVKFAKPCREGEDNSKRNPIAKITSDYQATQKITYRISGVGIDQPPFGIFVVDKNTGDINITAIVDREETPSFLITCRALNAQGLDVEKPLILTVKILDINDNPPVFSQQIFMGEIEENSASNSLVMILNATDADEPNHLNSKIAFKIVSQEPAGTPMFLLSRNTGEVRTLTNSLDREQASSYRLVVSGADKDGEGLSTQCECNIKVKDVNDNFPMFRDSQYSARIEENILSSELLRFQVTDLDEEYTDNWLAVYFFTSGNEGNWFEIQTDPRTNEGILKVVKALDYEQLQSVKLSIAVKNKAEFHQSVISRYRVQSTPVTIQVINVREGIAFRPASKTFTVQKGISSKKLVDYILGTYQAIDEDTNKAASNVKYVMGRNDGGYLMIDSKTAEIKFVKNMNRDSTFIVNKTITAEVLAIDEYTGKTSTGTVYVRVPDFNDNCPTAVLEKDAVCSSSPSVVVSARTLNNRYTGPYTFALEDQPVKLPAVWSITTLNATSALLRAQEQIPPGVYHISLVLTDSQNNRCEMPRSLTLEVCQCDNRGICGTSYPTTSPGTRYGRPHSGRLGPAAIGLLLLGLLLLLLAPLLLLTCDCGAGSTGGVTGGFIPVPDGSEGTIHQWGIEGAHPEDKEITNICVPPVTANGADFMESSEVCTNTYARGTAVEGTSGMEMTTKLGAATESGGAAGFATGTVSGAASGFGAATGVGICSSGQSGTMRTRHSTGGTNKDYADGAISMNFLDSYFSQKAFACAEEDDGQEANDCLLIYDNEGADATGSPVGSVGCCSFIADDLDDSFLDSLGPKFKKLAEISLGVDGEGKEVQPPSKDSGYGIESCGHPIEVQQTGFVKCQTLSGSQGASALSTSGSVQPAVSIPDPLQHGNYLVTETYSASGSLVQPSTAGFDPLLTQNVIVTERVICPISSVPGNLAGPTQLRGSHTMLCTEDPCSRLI
UniProt Q16610: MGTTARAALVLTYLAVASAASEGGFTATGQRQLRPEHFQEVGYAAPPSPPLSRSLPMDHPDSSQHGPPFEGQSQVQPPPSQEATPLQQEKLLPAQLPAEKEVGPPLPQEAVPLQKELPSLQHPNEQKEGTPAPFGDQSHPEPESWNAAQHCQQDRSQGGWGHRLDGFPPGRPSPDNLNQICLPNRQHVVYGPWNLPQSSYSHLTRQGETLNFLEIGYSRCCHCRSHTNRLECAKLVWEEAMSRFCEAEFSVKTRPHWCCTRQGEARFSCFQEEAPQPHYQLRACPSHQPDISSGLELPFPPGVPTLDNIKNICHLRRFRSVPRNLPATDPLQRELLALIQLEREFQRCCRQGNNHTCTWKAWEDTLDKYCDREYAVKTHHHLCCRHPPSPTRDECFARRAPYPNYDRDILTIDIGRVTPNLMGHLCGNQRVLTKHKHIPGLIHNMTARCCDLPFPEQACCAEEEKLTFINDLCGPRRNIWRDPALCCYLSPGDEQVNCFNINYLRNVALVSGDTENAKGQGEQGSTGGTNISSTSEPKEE
UniProt Q8WVE0: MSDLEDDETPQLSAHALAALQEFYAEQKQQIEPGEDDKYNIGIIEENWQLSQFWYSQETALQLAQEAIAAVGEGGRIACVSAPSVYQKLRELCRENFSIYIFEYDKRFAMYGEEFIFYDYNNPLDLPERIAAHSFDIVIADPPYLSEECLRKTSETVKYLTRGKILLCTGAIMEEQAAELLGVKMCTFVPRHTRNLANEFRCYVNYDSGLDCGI
UniProt Q08426: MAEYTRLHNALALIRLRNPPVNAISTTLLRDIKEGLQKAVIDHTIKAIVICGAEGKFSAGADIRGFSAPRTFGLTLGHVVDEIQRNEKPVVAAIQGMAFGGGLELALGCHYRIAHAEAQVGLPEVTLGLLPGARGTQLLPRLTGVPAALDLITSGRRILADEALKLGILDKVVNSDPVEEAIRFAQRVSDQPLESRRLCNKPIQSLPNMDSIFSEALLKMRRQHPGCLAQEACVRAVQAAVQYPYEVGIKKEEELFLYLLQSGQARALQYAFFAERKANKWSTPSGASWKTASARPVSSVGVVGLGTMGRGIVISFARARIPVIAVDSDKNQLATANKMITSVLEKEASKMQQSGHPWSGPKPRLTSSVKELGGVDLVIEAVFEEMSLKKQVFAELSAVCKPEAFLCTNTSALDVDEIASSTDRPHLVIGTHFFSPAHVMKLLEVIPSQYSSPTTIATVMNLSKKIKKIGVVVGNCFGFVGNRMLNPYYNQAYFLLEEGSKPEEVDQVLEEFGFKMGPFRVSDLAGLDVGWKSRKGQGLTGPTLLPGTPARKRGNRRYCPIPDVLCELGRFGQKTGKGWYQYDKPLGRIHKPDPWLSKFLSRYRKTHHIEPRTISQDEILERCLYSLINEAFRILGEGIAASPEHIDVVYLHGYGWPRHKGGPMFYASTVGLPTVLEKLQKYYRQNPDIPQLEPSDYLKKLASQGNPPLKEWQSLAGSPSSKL
UniProt Q9P2X0: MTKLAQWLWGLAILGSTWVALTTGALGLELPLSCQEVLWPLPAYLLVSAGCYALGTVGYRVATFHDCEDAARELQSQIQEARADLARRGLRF

How the values were obtained:
Assay in all cases: log2 fold change, soluble protein after heating vs DMSO (PISA); higher = thermal stabilisation; K562 lysate, 10 uM; active = over 0.2 and 3.5 SD of the protein, either way, in both replicates (recomputed)
[1] = compound: CCCS(=O)(=O)Nc1ccc(F)c(C(=O)c2c[nH]c3ncc(-c4ccc(Cl)cc4)cc23)c1F [vemurafenib]
In short: (§1)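 A 30 min treatment with 10 μM compound was applied to crude K562 extract at 1 mg/mL protein in PBS pH 7.4 with 1 mM MgCl2. Heating for 3 min spanned 48°C-58°C, after which aliquots were pooled, adjusted to 0.5% NP-40 at 4°C and spun at 21,000xg for 90 min. TMTpro 16plex LC-MS/MS of the supernatant, with channel sums equalised, gave values recorded as log-two fold change in thermal stability against solvent controls, from duplicates.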

[2] = compound: CC[C@@H]1C(=O)N(C)c2cnc(Nc3ccc(C(=O)NC4CCN(C)CC4)cc3OC)nc2N1C1CCCC1
In short: as §1

[3] = compound: CCn1c(C(=O)N(C2CC2)C2CC2)cc2c3c(ncn3C)c(Nc3cc(C)n(C)n3)nc21
In short: as §1

[4] = compound: CCn1cc(-c2ccnc3[nH]c(-c4cccc(CN(C)C)c4)cc23)c(-c2ccc(NC(=O)N(C)C)cc2)n1
In short: as §1

[5] = compound: CN1CCC(CNc2ccc3ncc(-c4cccc(OC(F)(F)F)c4)n3n2)CC1
In short: as §1

[6] = compound: CN1CCN(CCOc2cc(OC3CCOCC3)c3c(Nc4c(Cl)ccc5c4OCO5)ncnc3c2)CC1 [saracatinib]
In short: as §1

[7] = compound: CN1CCN(c2nc(C3=C(c4c[nH]c5ccccc45)C(=O)NC3=O)c3ccccc3n2)CC1 [sotrastaurin]
In short: as §1

[8] = compound: CN1CC[C@H](c2c(O)cc(O)c3c(=O)cc(-c4ccccc4Cl)oc23)[C@H](O)C1 [alvocidib]
In short: as §1

[9] = compound: CN1CCc2c(c3ccccc3n2Cc2ccc(C(=O)NO)cc2)C1 [Tubastatin A]
In short: as §1

[10] = compound: CNC(=O)C1=CC=CC=C1NC2=NC(=NC=C2Cl)NC3=C(C=C(C=C3)N4CCOCC4)OC
In short: as §1

[11] = compound: CNC(=O)c1ccc(Nc2ncc(C(F)(F)F)c(NCc3nccnc3N(C)S(C)(=O)=O)n2)cc1 [defactinib]
In short: as §1

[12] = compound: CNc1nc(-c2ccc3c(N)n[nH]c3c2)cc(N2C[C@@H](C(=O)NC3CCCCC3)CC[C@H]2C)n1
In short: as §1

[13] = compound: COC(=O)N[C@@H](C)CNc1nccc(-c2cn(C(C)C)nc2-c2cc(Cl)cc(NS(C)(=O)=O)c2F)n1 [encorafenib]
In short: as §1

[14] = compound: COC(=O)[C@H](CCSC)NC(=O)C1=C(C=C(C=C1)NC[C@H](CS)N)C2=CC=CC=C2
In short: as §1

[15] = compound: COc1cc(Nc2ncc3c(n2)-c2ccc(Cl)cc2C(c2c(F)cccc2OC)=NC3)ccc1C(=O)O [alisertib]
In short: as §1

[16] = compound: COc1cc2ncnc(Nc3ccc(F)c(Cl)c3)c2cc1OCCCN1CCOCC1 [gefitinib]
In short: as §1

[17] = compound: CCCS(=O)(=O)Nc1ccc(F)c(C(=O)c2c[nH]c3ncc(Cl)cc23)c1F
In short: as §1

[18] = compound: CCN(CCCOc1ccc2c(Nc3cc(CC(=O)Nc4cccc(F)c4)[nH]n3)ncnc2c1)CCOP(=O)(O)O [barasertib]
In short: as §1

[19] = compound: CC[C@@H]1C(=O)N(C)c2cnc(Nc3ccc(C(=O)N[C@H]4CC[C@H](N5CCN(CC6CC6)CC5)CC4)cc3OC)nc2N1C(C)C [volasertib]
In short: as §1

[20] = compound: COc1cc2nc(-c3cc(F)ccc3O)nc(N[C@@H]3CNC[C@H]3C(C)(C)O)c2cc1OC
In short: as §1

Measured: log2 fold change

EEF2KMT (UniProt Q96G04)
inactive: [1] -0.1 | [2] -0.002 | [3] 0.028 | [4] 0.07 | [5] -0.152 | [6] -0.058 | [7] 0.004 | [8] 0.047 | [9] -0.121 | [10] 0.012 | [11] 0.031 | [12] 0.091 | [13] -0.054 | [14] -0.012 | [15] -0.073 | [16] 0.209

EEF1D isoform 3 (UniProt P29692)
inactive: [17] 0.126 | [18] -0.117 | [19] 0.302 | [7] -0.233 | [10] 0.093 | [20] -0.049

DYNC2LI1 (UniProt Q8TCX1)
inactive: [1] 0.075 | [18] 0.039 | [3] 0.098 | [4] -0.003 | [5] 0.055 | [6] -0.037 | [7] 0.005 | [8] -0.022 | [9] 0.057 | [11] -0.006 | [12] -0.016 | [15] -0.049 | [16] 0.028

DZIP3 (UniProt Q86Y13)
inactive: [10] -0.137

DVL1 (UniProt O14640)
inactive: [1] 0.109 | [2] -0.009 | [11] -0.142 | [13] 0.164 | [14] 0.088

DSCAML1 (UniProt Q8TD84)
inactive: [17] 0.002 | [18] 0.542 | [19] -0.01 | [3] -0.111 | [4] 0.819 | [5] 0.099 | [7] -0.036 | [8] -0.035 | [9] 0.03 | [15] 0.084 | [20] 0.033 | [16] 0.039

Two records picked at random from those above:
DSCAML1 (UniProt Q8TD84)
inactive: [17] 0.002 | [18] 0.542 | [19] -0.01 | [3] -0.111 | [4] 0.819 | [5] 0.099 | [7] -0.036 | [8] -0.035 | [9] 0.03 | [15] 0.084 | [20] 0.033 | [16] 0.039

DVL1 (UniProt O14640)
inactive: [1] 0.109 | [2] -0.009 | [11] -0.142 | [13] 0.164 | [14] 0.088

Carrying on.

DUSP13 isoform 4 (UniProt Q9UII6)
inactive: [10] -0.045

DRAM2 (UniProt Q6UX65)
inactive: [17] 0.023 | [18] 0.098 | [19] -0.053 | [4] -0.217 | [5] 0.168 | [7] -0.026 | [8] -0.003 | [15] -0.034 | [20] 0.032 | [16] -0.037

DSG3 (UniProt P32926)
inactive: [18] -0.129 | [3] -0.05 | [4] -0.086 | [5] -0.19 | [8] -0.098 | [9] 0.245

DUT (UniProt H0YMP1)
inactive: [17] -0.338 | [18] 0.162 | [19] 0.03 | [20] -0.021

DYRK1A isoform 2 (UniProt Q13627)
inactive: [18] 0.006 | [3] 0.308 | [4] 0.085 | [5] 0.221 | [7] 0.033 | [8] 0.225 | [9] 0.023 | [10] 0.148

EFCAB3 (UniProt Q8N7B9)
inactive: [17] -0.066 | [19] 0.007 | [7] 0.046 | [10] 0.083 | [20] -0.104

EID1 (UniProt Q9Y6B2)
inactive: [2] 0.015 | [3] 0.001 | [4] -0.073 | [5] 0.002 | [6] -0.157 | [8] -0.061 | [9] -0.004 | [10] 0.036 | [12] 0.046 | [13] -0.057 | [14] 0.072 | [15] -0.067 | [16] 0.022

DPYSL3 isoform 2 (UniProt Q14195)
inactive: [2] 0.106 | [7] -0.115 | [13] -0.184 | [14] 0.208

EEPD1 (UniProt Q7L9B9)
inactive: [7] 0.087

ECM1 isoform 2 (UniProt Q16610)
inactive: [3] -0.016 | [9] -0.054

DYNLT3 (UniProt P51808)
inactive: [17] 0.252 | [19] 0.153 | [4] -0.125 | [5] -0.013 | [7] 0.023 | [8] 0.024 | [10] 0.073 | [15] 0 | [20] 0.356 | [16] 0.068

EEF1AKMT1 (UniProt Q8WVE0)
inactive: [17] 0.088 | [18] 0.114 | [2] 0.233 | [19] -0.021 | [3] -0.013 | [6] 0.001 | [7] -0.023 | [9] -0.259 | [10] -0.06 | [12] 0.119 | [13] -0.109 | [14] 0.011 | [15] -0.052 | [20] 0.098 | [16] 0.13

DTL (UniProt Q9NZJ0)
inactive: [1] -0.007 | [18] 0.044 | [3] 0.02 | [4] 0.065 | [5] -0.034 | [6] -0.1 | [7] -0.03 | [8] -0.008 | [9] -0.072 | [10] -0.003 | [11] 0.071 | [12] -0.092 | [15] -0.038 | [16] 0.043

DTWD2 (UniProt Q8NBA8)
inactive: [17] 0.001 | [18] 0.008 | [19] 0.016 | [3] 0.003 | [4] -0.108 | [5] 0.01 | [7] 0.028 | [8] -0.03 | [9] -0.078 | [10] 0.026 | [15] -0.025 | [20] 0.069 | [16] 0.082

DPF3 isoform 3 (UniProt Q92784)
inactive: [18] 0.005 | [15] 0.049 | [16] -0.057

DST isoform 3 (UniProt Q03001)
inactive: [18] 0.041 | [2] 0.052 | [5] -0.213 | [8] 0.386 | [10] -0.061 | [13] 0.008 | [14] -0.004
active: [4] 1.48

DSTYK (UniProt Q6XUX3)
inactive: [3] -0.424 | [4] 0.19 | [5] 0.016 | [7] 0.135 | [8] -0.048 | [9] -0.237 | [10] 0.345 | [15] -0.029 | [16] -0.017

EHHADH (UniProt Q08426)
inactive: [17] 0.082 | [18] -0.066 | [2] 0.117 | [19] -0.108 | [3] -0.037 | [4] 0.055 | [5] -0.037 | [6] 0.091 | [7] -0.044 | [8] 0.013 | [9] 0.039 | [10] -0.024 | [12] 0.101 | [13] 0.035 | [14] -0.426 | [15] 0.065 | [20] -0.005 | [16] 0.012

DPM3 isoform 2 (UniProt Q9P2X0)
inactive: [17] -0.043 | [18] 0.122 | [19] 0.019 | [3] 0.017 | [4] 0 | [5] -0.083 | [7] -0.02 | [8] 0.088 | [9] 0.046 | [10] 0.062 | [15] 0.028 | [20] -0.053 | [16] -0.071
